This data set deals with primary hepatocytes. Briefly: Hepatic glucose production, basal lactate/pyruvate 2 hours, in primary hepatocytes. In kind it is cell-based, Wistar rats. The following applies: Basal Lact/Pyr 2 hours. As to the method:
Study of the Effect on Glucose Production by the Liver Materials and Method:
After washing in pH 7.4 PBS buffer, the cells are incubated for two hours at 37° C. in a Krebs buffer free of glucose and of insulin, containing lactate/pyruvate (10/1 mM) in the presence or absence of the test compounds. 10 μM MICA (5-methoxyindole-2-carboxylic acid) is used as reference substance. Two identical experiments are performed (Table III-2).
The protein assay is performed on the rest of the incubation medium via the Lowry method (BIO-RAD Dc protein assay, BIO-RAD 5000116).
The results are expressed as nmoles of glucose produced per […] of proteins. The statistical test used is the t test.

For the substance “2-(2′-naphthylthio)-4-phenyl-4-oxobutanoic acid [Ih-1]”, the “Proteins % of control” value runs as follows: (1 μM) 94 % of control; (10 μM) 101 % of control; (100 μM) 96 % of control.
